The list shows a part of the results. Shown are side measurements of this screen, not its main read-out; they come without a call. Most of these compounds were active or inconclusive in the main read-out, so they are no random draw. Potencies come from curve fits of mixed quality, noted in brackets.
Assay: qHTS Assay for Lipid Storage Modulators in Drosophila S3 Cells;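 on cell number change: cells counted by Cell Tracker Red CMTPX staining in the red channel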
Details: BODIPY lipid droplet fluorescence, 18-24 h; for cell number change: measured here: cell count max response, cells fed with added oleic acid
Method in brief: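 Laser-scanning cytometry quantifies lipid droplet accumulation (500–530 nm total intensity; droplet/cell object ratio) in oleic acid-fed (400 uM added) Drosophila S3 cells treated with a concentration series. 20 uM Triacsin C defined 100% inhibition.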

[1] = measured here: cell number channel AC50, cells fed with added oleic acid
[2] = measured here: lipid fluorescence (Fed channel) AC50, cells fed with added oleic acid

Row | Compound | cell number change [%] | AC50 [1] | AC50 [2]
1 | Cc1cc(/C=N/n2cnnc2)c(C)n1-c1ccc(Cl)cc1 | -12.6 | 4.61 µM [rising, single point] | 
2 | Cc1ccccc1N=C1NC(=O)CS1 | -1.7 |  | 2.31 µM [falling, partial curve, poor fit]
3 | N/C(=N\OC(=O)c1cccc(Br)c1)c1ccc([N+](=O)[O-])cc1 | -0.263 |  | 3.26 µM [falling, full curve]
4 | Cc1ccc(/C=N/Nc2ccc(F)cc2)s1 | -34.2 | 13 µM [falling, single point] | 
5 | CC(C)c1ccc(Nc2nnns2)cc1 | 8.09 |  | 6.51 µM [falling, single point]
6 | CCN(CC)CCOC(=O)C(Cc1cccc2ccccc12)CC1CCCO1 (centres undefined) | -18.1 |  | 5.17 µM [falling, full curve, poor fit]
7 | CCN1C(=O)[C@H]2[C@@H](c3ccc(-c4ccc(OC)cc4)cc3)N3CCCC[C@@]3(C(=O)OC)[C@H]2C1=O | -1.65 | 0.326 µM [rising, partial curve, poor fit] | 
8 | Cc1ccc(SC(=O)COc2ccccc2C)cc1 | 11.5 | 0.13 µM [falling, full curve, poor fit] | 0.651 µM [falling, single point]
9 | CN(c1ccccc1)C(c1ccc(F)cc1)c1nnnn1C1CCCC1 (centres undefined) |  |  | 6.51 µM [rising, single point]
10 | CCOC(=O)N1CCN(S(=O)(=O)c2cccc3cccnc23)CC1 | 26.8 | 1.64 µM [rising, full curve, poor fit] | 
11 | COc1cccc(CNc2ccc3[nH]c(=O)[nH]c3c2)c1OCc1ccccc1Cl | -33.8 | 8.2 µM [falling, partial curve, poor fit] | 
12 | N#Cc1ccc(OCC(=O)OCC(=O)Nc2ccc(N3CCOCC3)cc2)cc1 | -40.8 | 2.59 µM [falling, full curve] | 18.4 µM [falling, single point]
13 | CCn1nc(C)c(/C=N/NC(=O)Cn2nccc2C)c1C | -0.804 |  | 
14 | C=CCNC(=O)C1CC2Cn3c(nc4cc(Cl)c(Cl)cc43)C2N1C (centres undefined) | -11.1 |  | 0.13 µM [rising, full curve, poor fit]
15 | CCCOc1ccc(C(=O)NC(=S)N2CCN(c3cc4c(cc3F)c(=O)c(C(=O)O)cn4CC)CC2)cc1 | 164 | 14.6 µM [rising, partial curve] | 
16 | COC(=O)C(Cc1ccccc1)NCC(=O)Nc1cccc(Cl)c1C (centres undefined) | 24.6 |  | 5.8 µM [rising, partial curve]
17 | CC(C)n1cnc2c(NCc3ccccc3)cc(Cc3ccc(F)cc3)cc21 | -26 | 0.206 µM [falling, full curve, poor fit] | 0.259 µM [falling, partial curve, poor fit]
18 | C1=CN2CCC1C(c1ccccc1)C2 (centres undefined) | -15.9 |  | 3.66 µM [falling, full curve, poor fit]
19 | COC(=O)CN(n1cnnc1)S(=O)(=O)c1ccccc1 | 2.74 | 5.8 µM [falling, single point] | 

Ordered by molar mass (rising): part of the list above
Row | Compound | cell number change [%] | AC50 [1] | AC50 [2]
18 | C1=CN2CCC1C(c1ccccc1)C2 (centres undefined) | -15.9 |  | 3.66 µM [falling, full curve, poor fit]
3 | N/C(=N\OC(=O)c1cccc(Br)c1)c1ccc([N+](=O)[O-])cc1 | -0.263 |  | 3.26 µM [falling, full curve]
14 | C=CCNC(=O)C1CC2Cn3c(nc4cc(Cl)c(Cl)cc43)C2N1C (centres undefined) | -11.1 |  | 0.13 µM [rising, full curve, poor fit]

The list continues.

Row | Compound | cell number change [%] | AC50 [1] | AC50 [2]
20 | C#CCN1C(=O)C(O)(CC(=O)/C=C/c2ccco2)c2ccccc21 (centres undefined) | -29.6 |  | 
21 | O=C(Nc1cccc2ncccc12)c1ccc2c(c1)OCCO2 | 3.52 |  | 9.2 µM [rising, partial curve]
22 | CN1C(=S)SC(C)(C)C1/[N+]([O-])=C/c1cccnc1 (centres undefined) | 14.2 |  | 0.231 µM [rising, full curve, poor fit]
23 | COc1ccccc1-n1c(SCC(=O)Nc2ccc3c(c2)OCO3)nc2c(c1=O)SCC2 | 97.4 | 0.411 µM [rising, full curve] | 0.326 µM [rising, full curve]
24 | CCCCN(C(=O)c1c(CC)noc1C)c1c(N)n(CC(C)C)c(=O)[nH]c1=O | -52.7 | 1.16 µM [falling, full curve, poor fit] | 0.82 µM [falling, full curve]
25 | COc1ccccc1CCNC(=O)c1ccccc1SCC(=O)N1CCCC1 | 6.18 | 0.517 µM [falling, single point] | 6.51 µM [rising, single point]
26 | CCOC(=O)C1CCN(C(=O)Cn2cnc3sc(C)c(S(=O)(=O)N4CCC(C)CC4)c3c2=O)CC1 |  |  | 0.82 µM [falling, full curve]
27 | COc1ccccc1-c1ccc(C(=O)O)o1 | -15.3 |  | 25.9 µM [falling, partial curve, poor fit]
28 | Cc1cc(C)nc(NS(=O)(=O)c2ccccc2)n1 | 4.05 |  | 29.1 µM [rising, single point]
29 | c1coc(CNc2ncnc3sc4c(c23)CCCCC4)c1 | -8.29 |  | 0.58 µM [rising, full curve, poor fit]
30 | CCn1nc(C(=O)Nc2ccc(S(=O)(=O)Nc3ncccn3)cc2)c2ccccc2c1=O | -13.2 | 5.8 µM [rising, single point] | 
31 | O=C(NCc1ccccc1)c1cccc(COc2cccc(Cl)c2)c1 | 0.297 |  | 
32 | Cc1ccccc1OCC(=O)NNC(=O)C1CCCCC1C(=O)O (centres undefined) | -0.23 |  | 29.1 µM [rising, single point]
33 | Cc1cc(N=CC2=C(O)CCCC2=O)no1 | 2.92 |  | 
34 | Cc1nc2c(c(=O)n1CCC1=CCCCC1)c1nc3ccccc3nc1n2/N=C/c1ccccc1 |  |  | 4.61 µM [rising, partial curve, poor fit]
35 | CN(Cc1ccccc1)C(=O)COC(=O)CCNC(=O)c1ccccc1Cl | -55.7 | 0.259 µM [falling, full curve, poor fit] | 0.164 µM [falling, full curve, poor fit]
36 | C=CCNC(=O)c1ccc(CSc2nc3ccccc3s2)cc1 | 1.08 |  | 
37 | COC(=O)c1sccc1NC(=O)/C=C/c1ccc(Cl)cc1 |  |  | 0.411 µM [rising, full curve, poor fit]
38 | CCOC(=O)COc1ccc(Oc2nc(C)cc(OC)n2)nn1 | 9.77 |  | 29.1 µM [rising, partial curve, poor fit]

From PubChem BioAssay AID2685 (National Center for Advancing Translational Sciences (NCATS), 2010)
